Source: patent publication US6358701B1, “DNA molecules encoding Ctenocephalides felis glutamate gated chloride channels” (Merck & Co., Inc., priority 1997, dated 2002)

System: CfGluCl-1 (C. felis GluCl channel)
Experiment: Two microelectrode voltage clamp of Xenopus oocytes expressing CfGluCl-1
Format: cell-based, Ctenocephalides felis
Conditions: holding potential 0 mV
Protocol: The full-length cDNA encoding CfGluCl-1 in plasmid vector pBluescript (Stratagene, LaJolla, Calif.) is linearized and capped cRNA transcripts are synthesized using appropriate oligonucleotide primers and the mMESSAGE mMACHINE in vitro RNA transcription kit (Ambion). Xenopus laevis oocytes were prepared and injected using standard methods as described (Arena et al., 1991, Mol. Pharmacol. 40: 368-374; Arena et al, 1992, Mol. Brain Res. 15: 339-348). Adult female Xenopus laevis were anesthetized with 0.17% tricaine methanesulfonate and the ovaries were surgically removed and placed in a dish consisting of (mM): NaCl 82.5, KCl 2, MgCl2 1, CaCl2 1.8, HEPES 5 adjusted to pH 7.5 with NaOH (OR-2). Ovarian lobes were broken open, rinsed several times, and gently shaken in OR-2 containing 0.2% collagenase (Sigma, Type IA) for 2-5 hours. When approximately 50% of the follicular layers were removed, Stage V and VI oocytes were selected and placed in media consisting of (mM): NaCl 86, KCl 2, MgCl2 1, CaCl2 1.8, HEPES 5, Na pyruvate 2.5, theophylline 0.5, gentamicin 0.1 adjusted to pH 7.5 with NaOH (ND-96) for […] before injection. For most experiments, oocytes were injected with 10 ng of cRNA in 50 nl of RNase free water. Control oocytes were injected with 50 nl of water. […]
Each curve represents the difference between the current measured with and without 10 μM glutamate. […]

## ivermectin phosphate [IVM-PO4]
  n (exponent of equation (1)): 1.0
